Experimental data reported in PubChem BioAssay AID493014 (National Center for Advancing Translational Sciences (NCATS), 2011).
The list shows a part of the results. The main result of the screen is listed elsewhere. These columns were measured beside it and carry no call. Compounds called inactive in the main read-out are mostly missing here. The note in brackets gives the kind of curve behind each potency; many fits are weak.

Assay: qHTS Assay to Find Inhibitors of Chronic Active B-Cell Receptor Signaling
Settings: ABC-DLBCL IkBa-CBG/CBR reporter, luminescence ratio (green luciferase fused to IkBa over red control in TMD8 lymphoma cells), 4 h
Method in brief: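 TMD8 human ABC-DLBCL cells with doxycycline-inducible IκBα–green luciferase fusion and unfused red luciferase, in 0.5% FBS medium; compounds up to 46 uM, 4 h at 37C. Green/red luminescence ratio, filter-overlap corrected, fitted to concentration-response curves.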

[1] = measured here: CBR red luminescence, cell number
[2] = measured here: IkBa-CBG green luminescence

Row | SMILES | AC50 [1] | AC50 [2]
1 | CC(=O)NN1C(=O)/C(=C/c2ccc(Br)o2)SC1=S | 2.91 µM [falling, full curve, poor fit] | 
2 | O=C(CC(=O)c1ccccc1)Nc1ccccn1 | 14.1 µM [falling, partial curve] | 
3 | Cc1ccc(O)c(NC(=O)c2cc([N+](=O)[O-])ccc2Cl)c1 | 15.8 µM [falling, single point] | 
4 | O=c1sc2ccccc2n1CCCOc1ccccc1 | 3.16 µM [rising, partial curve] | 
5 | O=C(Nc1ccc(O)c(C(=O)O)c1)c1cccc(NC(=O)c2ccco2)c1 | 15.8 µM [falling, single point] | 
6 | CC1Sc2ccc(C(=O)Nc3ncccc3O)cc2NC1=O (stereo not drawn) | 3.26 µM [falling, partial curve] | 
7 | O=C(Nc1c(C(=O)O)[nH]c2ccccc12)c1cccc(C(F)(F)F)c1 | 35.5 µM [rising, single point] | 
8 | COC(C[C@@H]1O[C@@H]1[C@H](O)COCc1ccccc1)OC | 29.1 µM [rising, single point] | 
9 | O=C(Cn1cnc([N+](=O)[O-])c1)Nc1cc(Oc2ccc(Cl)cc2Cl)cc([N+](=O)[O-])c1 | 29.1 µM [falling, single point] | 23.1 µM [rising, partial curve, poor fit]
10 | O=C(Nc1nccs1)C1CCCN(S(=O)(=O)c2cccnc2)C1 (stereo not drawn) | 1.46 µM [falling, full curve] | 
11 | Cc1ccc(-c2nnc(N(C)C(=O)c3cccnc3)s2)cc1 | 1.12 µM [rising, full curve, poor fit] | 
12 | CCOC(=O)/C=C(\C)N1N=C(c2ccccc2)CC1c1ccccc1 (stereo not drawn) | 0.447 µM [rising, partial curve, poor fit] | 
13 | COc1ccc(C2/C=C\CN(S(=O)(=O)c3ccc(C)cc3)[C@H](Cc3ccccc3)C(=O)N2Cc2ccc(F)cc2)cc1 (stereo partly drawn) | 12.6 µM [falling, single point] | 
14 | CCN1C(=O)N/C(=C/c2ccc(C)o2)C1=O | 29.1 µM [falling, single point] | 20.6 µM [falling, single point]
15 | COC(=O)C1=CN(Cc2ccccc2)C=C(C(=O)OC)C1c1cc(F)ccc1F | 15.8 µM [falling, single point] | 
16 | C=CCC(Nc1ccccc1)C12C=CC(O1)C(C(=O)OC)=C2C(=O)OC (stereo not drawn) | 2.31 µM [falling, full curve] | 
17 | COc1ccc(NC(=O)CC(=O)Nc2ccc(OC)cc2OC)c(OC)c1 | 11.6 µM [falling, partial curve, poor fit] | 
18 | O=C(Nc1cccc(-c2nc3ccccc3s2)c1)c1cc(=O)c2ccccc2o1 | 14.6 µM [falling, partial curve] | 
19 | CCNC(=O)CC1SC(=Nc2ccc(Cl)cc2)N(CC)C1=O (stereo not drawn) | 0.58 µM [rising, full curve, poor fit] | 

Single values from above.
`O=C(Nc1ccc(O)c(C(=O)O)c1)c1cccc(NC(=O)c2ccco2)c1` – AC50 [1]: 15.8 µM [falling, single point]
`CC1Sc2ccc(C(=O)Nc3ncccc3O)cc2NC1=O` (stereo not drawn) – AC50 [1]: 3.26 µM [falling, partial curve]

Remaining list, next part

Row | SMILES | AC50 [1] | AC50 [2]
20 | Cc1cc(C)cc(NC(=O)[C@H](Cc2c[nH]c3ccccc23)NC(=O)[C@@H]2Cc3ccccc3CN2)c1 | 10 µM [falling, partial curve, poor fit] | 
21 | c1ccc2c(-n3cccn3)cccc2c1 | 35.5 µM [rising, single point] | 
22 | O=C1Nc2ccc(Br)cc2/C1=C/C(=O)c1ccc2c(c1)OCO2 | 4.47 µM [falling, partial curve] | 14.1 µM [rising, partial curve, poor fit]
23 | N#Cc1c(C(F)(F)F)cc(-c2cccs2)nc1SCC(=O)O | 7.94 µM [falling, single point] | 14.1 µM [rising, single point]
24 | Brc1ccc(-c2nc(-c3ccncc3)no2)cc1 | 8.91 µM [rising, partial curve] | 
25 | COc1ccc(NC(=O)C2CCCN(S(=O)(=O)c3cccc4nonc34)C2)c(OC)c1 (stereo not drawn) | 6.51 µM [rising, full curve, poor fit] | 
26 | O=C(Nc1ccc(N2CCCCC2)cc1)c1ccc2c(c1)OCCO2 | 7.31 µM [falling, partial curve, poor fit] | 
27 | CC1=Nc2ccc(C)cc2/C1=C/c1c(N)n2c(S(=O)(=O)C(C)C)nsc2nc1=O | 7.94 µM [falling, partial curve, poor fit] | 
28 | COc1ccc(CCNC(=O)c2ccn[nH]2)cc1OC | 35.5 µM [falling, single point] | 
29 | Cc1cc(C(=O)COC(=O)c2n[nH]c(=O)c3ccccc23)c(C)n1C | 29.1 µM [rising, single point] | 
30 | Cc1cc(N2CCOCC2)nc2ccc(NC(=S)NCc3ccc4c(c3)OCO4)cc12 | 35.5 µM [falling, single point] | 
31 | CC1=NN(c2cccc(C(=O)O)c2)C(=O)/C1=C\C=C/c1ccccc1 | 6.31 µM [falling, single point] | 
32 | O=C(N/N=C/c1cc([N+](=O)[O-])ccc1O)C1C2CCCCC21 (stereo not drawn) | 11.2 µM [rising, partial curve, poor fit] | 
33 | CCNC(=S)N/N=C/c1ccc(C(=O)O)cc1 | 35.5 µM [falling, single point] | 
34 | Cc1ccc(-n2ncc3c(N4CCN(Cc5ccccc5)CC4)ncnc32)cc1C | 4.47 µM [falling, partial curve, poor fit] | 3.16 µM [rising, partial curve, poor fit]
35 | COc1cc2c(cc1OC)CN(c1ccc([N+](=O)[O-])cc1Cl)CC2 | 7.31 µM [rising, partial curve, poor fit] | 
36 | O=C(N/C(=C/c1ccc(Br)cc1)C(=O)N1CCCC1)c1ccccc1F | 18.4 µM [rising, partial curve, poor fit] | 
37 | COc1cc2c(cc1NC(=O)c1cc(-c3ccncc3)nc3ccc(C)cc13)oc1ccccc12 | 29.1 µM [rising, single point] | 
38 | CCOCCCNC(=O)CCC(=O)NNc1nc2ccccc2c2nc(C)nn12 | 35.5 µM [rising, partial curve, poor fit] | 
